# Assay results

Data taken from PubChem BioAssay AID1159506, deposited by NCATS (2015).

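Genome-wide siRNA knockdown in TC32 Ewing sarcoma cells, comparing luciferase light from an NR0B1-promoter reporter with a CMV-promoter reporter 48 hours after transfection.
Each siRNA was applied at 20 nM.
A z-score of the log NR0B1-over-CMV signal, less the median of siRNAs with the same seed; more negative means a stronger specific loss of the NR0B1 reporter.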

This is part of the screen; most of the strongest results are not listed here.
Sequences are the guide (antisense) strand, without overhang.

| # | Sequence | gene | seed-corrected z-score |
|---|---|---|---|
| 1 | `UAGGGUCAAAACUAGUAUC` | BHLHB9 | -0.9512 |
| 2 | `UUCUUUAGGUUCUUUAUCU` | PYM1 | 0.6422 |
| 3 | `UCAGUGCAAUCUCAAAUUC` | ZMYND10 | -0.7111 |
| 4 | `AUAUGUCUUCUUGAUGUAG` | ABHD2 | -0.3656 |
| 5 | `UUUCUUUAACAGAUCAAUG` | HIPK1 | -0.1665 |
| 6 | `UUAUAUAAUCUGCAGAGUC` | UBE2Q2P1 | 0.2943 |
| 7 | `UUGUAGGAGAGAUCAAUGG` | ECM2 | -0.2875 |
| 8 | `UAAGGUAAUGCAAAUUCUU` | GTPBP8 | 0.3806 |
| 9 | `ACAACCUUAAGCAUGUUCC` | TDO2 | 0.09469 |
| 10 | `UUUGAGUACUCUGCUCUCC` | MORF4L1 | -0.2666 |
| 11 | `UAGGGUGAAGGGAUCAAGC` | CASC10 | 0.3029 |
| 12 | `UCUGUACUUGCACAGGUUG` | KLK14 | 0.03642 |
| 13 | `UGUUUUCGUACUCUAGGUG` | CHD8 | 0.0679 |
| 14 | `UUUUAUACCGCAGUAUUUC` | SYTL2 | 0.1401 |
| 15 | `UCUGAUGUUGGGCUAGUGC` | ZNF454 | -1.005 |
| 16 | `UAGGAUUCCCUCCAAGACC` | KDM1A | 0.6896 |
| 17 | `UUGCUAUCCACCCAAGUUC` | EPHA4 | -0.8524 |
| 18 | `UCUGAAUCUGUUGUAAACU` | LOC643496 | 0.7345 |
| 19 | `UGUUCUGCGACUUCCGUGU` | FAM86C2P | -1.549 |
| 20 | `UGGUCUGAAAUCACAGUUC` | RNFT1 | -0.6899 |
| 21 | `UUCGACAUCAUCUAGUGCC` | EMC3 | 2.663 |
| 22 | `UCAUCGCCAAUGUAGAGCU` | DUPD1 | -0.8504 |
| 23 | `UACAUCACCAUAAGGGUUC` | OR11H6 | -0.2771 |
| 24 | `UUUGCUAAGCUGUAUGCUC` | TLR7 | -0.8706 |
| 25 | `UUCGGUUACUGUGGGUUUC` | DEFB127 | 2.078 |
| 26 | `UAGCUGUAAACCACGAACC` | GMFG | -0.964 |
| 27 | `AAUGAUAUUACUGCGAUUG` | HYDIN | -0.1019 |
| 28 | `UAAGAGACUAUGGUGAAUC` | TEX19 | -0.2987 |
| 29 | `AAUAUGAUCCGUUGUAUCC` | FIGN | 0.5378 |
| 30 | `UGAAAUUACAGCUUUCUUG` | TTC4 | 0.004936 |
| 31 | `UCCAGCUUUAUGUCGAUGC` | KIF1C | -0.2488 |
| 32 | `UUGGGAUAGUUUAGGAUCC` | HARS | 0.3301 |
| 33 | `AACGGUUGAGGGUCGUGUC` | BOLA2 | -1.16 |
| 34 | `UCCGGUUCUAGCAAUUGCC` | OSBPL6 | 0.7815 |
| 35 | `AUUGUAGUAGAAGUAGACC` | UTY | -1.235 |
| 36 | `UUCACUUCCAUUACCACUC` | PHF14 | -0.01943 |
| 37 | `UCCUUGACGAAGUAGCUUC` | PI4K2A | -0.2465 |
| 38 | `UUUAGUGUGGUCUAAAACC` | MSH3 | -0.2795 |
| 39 | `AGUUAAAGUAGUGAUAUCC` | NDUFS4 | 2.326 |
| 40 | `UCUUAUAAACUCUAUAGCC` | CCAR2 | -0.4065 |
| 41 | `UCGAAGUUCAGUAACAAGC` | HACE1 | 0.03143 |
| 42 | `UUCUCGAAAACCAUCUGCU` | COPZ2 | 0.9138 |
| 43 | `UUCCCUAUGAGGUUCACGC` | FBN1 | 0.2034 |
| 44 | `UGAGAUUCCACUUUGACCU` | SMTNL1 | 0.1992 |
| 45 | `UUUCUAGACAUCCAUCAUC` | SCG5 | -0.4579 |
| 46 | `UGGGAUAACAAUGUAGAGA` | OR52H1 | -1.44 |
| 47 | `UCGGGUUUGAUAAUGGAAC` | UBE3B | 0.09976 |
| 48 | `UGGUGUAGUACUACUGAGG` | EPC1 | -0.745 |
| 49 | `UUCCGUGUAAUAUUCAUCU` | COL5A1 | 0.5853 |
| 50 | `UGGAGAGUGAUGCAGCUGC` | LY6G5C | -0.6481 |
| 51 | `AUUGUGAUUACUGAGGUAG` | EPHA1 | 0.875 |
| 52 | `UCUCAUAGAGGAGAGCUCC` | LINC00959 | -0.2386 |
| 53 | `UCCGUGUAAAGGUAGAAGC` | PDE1A | -1.212 |
| 54 | `UACAAAGCUUGAGACUUUG` | GZMB | -0.7944 |
| 55 | `UUUCGUACAACUCCUUUCC` | NCBP1 | 0.1391 |
| 56 | `ACAGGUACACAUAGGAUGC` | FTH1P18 | -0.648 |
| 57 | `UGAAGUACCCGUCCAAUGG` | MED12 | 0.9873 |
| 58 | `UACCGUGUCACCACGUAAG` | MAPK9 | 0.6845 |
| 59 | `UUUCUGACAAACCUCACAC` | ZNF552 | -0.222 |
| 60 | `UUUUCGAGCAGCUUGAUCC` | CAMTA1 | -0.1282 |
| 61 | `AUCUGUAAGAGGGAUCCGC` | PRR25 | -0.6184 |
| 62 | `UUAAGUCUGCUUUUGGUCC` | SEC62 | -0.4366 |
| 63 | `UCUCUAAUCAUCACCAUAG` | CUL3 | -0.3134 |
| 64 | `AUUGGGUUUCAGUUCAUGC` | SMURF1 | 1.26 |
| 65 | `AAAUGUUGCAUUUAUUAAG` | RPRM | -0.3878 |
| 66 | `UUUUGUAGUUGUCAUAGCG` | SPPL3 | -0.00467 |
| 67 | `UAAAUUACCAGGGAGAUGA` | PERP | 0.7127 |
| 68 | `AUAUGGAUGAAAUAAGCAC` | OR6C68 | 1.015 |
| 69 | `UACCUGACGAUACUUGUUU` | SSX5 | -1.07 |